No constants are given. Whether binding was seen depends on the method and setting. Binding seen in cells or lysates may run through a third protein. Some results given as binding are weak or reduced against the parent protein; the word gives no strength.
Experiments:
[1] = biological target: pTyr421-cortactin (human (endogenous in HCT116)) (UniProt Q14247); experiment: co-IP; HCT116 cells lysed in RIPA buffer, pre-cleared lysates; 5 µg antibody (anti-pTyr421-CTTN or anti-CTTN total, rabbit polyclonal) to 1 mg lysate overnight at 4°C, protein A/G agarose 1 h at 4°C; blot for CTNND1; cells without or with 50 µM curcumin for 15 min (curcumin greatly reduced the co-precipitate with total CTTN)
[2] = biological target: cortactin (total CTTN) (human (endogenous in HCT116)) (UniProt Q14247); experiment: as above
[3] = biological target: pTyr421-cortactin (human (endogenous in HCT116)) (UniProt Q14247); experiment: condition: only cells treated with 50 µM curcumin for 15 min; co-IP; as a1, HCT116 cells treated with 50 µM curcumin for 15 min before lysis; IP with anti-pTyr421-CTTN, blot for CTNND1

Amino acid sequences for entries named in this document (tags omitted).
UniProt Q14247: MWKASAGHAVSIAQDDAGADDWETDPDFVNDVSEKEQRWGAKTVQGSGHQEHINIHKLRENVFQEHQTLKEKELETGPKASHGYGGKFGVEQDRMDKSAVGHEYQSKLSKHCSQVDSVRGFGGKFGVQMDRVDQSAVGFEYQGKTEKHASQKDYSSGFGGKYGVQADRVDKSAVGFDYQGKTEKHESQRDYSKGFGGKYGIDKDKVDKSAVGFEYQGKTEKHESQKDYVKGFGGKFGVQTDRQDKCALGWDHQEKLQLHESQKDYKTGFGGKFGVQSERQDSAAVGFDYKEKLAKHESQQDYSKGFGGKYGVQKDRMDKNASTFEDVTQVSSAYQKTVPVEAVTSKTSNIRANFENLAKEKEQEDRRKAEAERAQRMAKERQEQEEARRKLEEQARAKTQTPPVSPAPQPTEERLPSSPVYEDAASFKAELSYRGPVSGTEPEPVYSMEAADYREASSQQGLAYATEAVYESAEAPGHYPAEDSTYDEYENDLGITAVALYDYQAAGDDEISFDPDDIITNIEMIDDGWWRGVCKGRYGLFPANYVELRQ

B1: p120 catenin (cadherin-associated protein) delta 1 (CTNND1) (protein, UniProt O60716 1-968)
chain: MDDSEVESTASILASVKEQEAQFEKLTRALEEERRHVSAQLERVRVSPQDANPLMANGTLTRRHQNGRFVGDADLERQKFSDLKLNGPQDHSHLLYSTIPRMQEPGQIVETYTEEDPEGAMSVVSVETSDDGTTRRTETTVKKVVKTVTTRTVQPVAMGPDGLPVDASSVSNNYIQTLGRDFRKNGNGGPGPYVGQAGTATLPRNFHYPPDGYSRHYEDGYPGGSDNYGSLSRVTRIEERYRPSMEGYRAPSRQDVYGPQPQVRVGGSSVDLHRFHPEPYGLEDDQRSMGYDDLDYGMMSDYGTARRTGTPSDPRRRLRSYEDMIGEEVPSDQYYWAPLAQHERGSLASLDSLRKGGPPPPNWRQPELPEVIAMLGFRLDAVKSNAAAYLQHLCYRNDKVKTDVRKLKGIPVLVGLLDHPKKEVHLGACGALKNISFGRDQDNKIAIKNCDGVPALVRLLRKARDMDLTEVITGTLWNLSSHDSIKMEIVDHALHALTDEVIIPHSGWEREPNEDCKPRHIEWESVLTNTAGCLRNVSSERSEARRKLRECDGLVDALIFIVQAEIGQKDSDSKLVENCVCLLRNLSYQVHREIPQAERYQEAAPNVANNTGPHAASCFGAKKGKDEWFSRGKKPIEDPANDTVDFPKRTSPARGYELLFQPEVVRIYISLLKESKTPAILEASAGAIQNLCAGRWTYGRYIRSALRQEKALSAIADLLTNEHERVVKAASGALRNLAVDARNKELIGKHAIPNLVKNLPGGQQNSSWNFSEDTVISILNTINEVIAENLEAAKKLRETQGIEKLVLINKSGNRSEKEVRAAALVLQTIWGYKELRKPLEKEGWKKSDFQVNLNNASRSQSSHSYDDSTLPLIDRNQKSDKKPDREEIQMSNMGSNTKSLDNNYSTPNERGDHNRTLDRSGDLGDMEPLKGTTPLMQDEGQESLEEELDVLVLDDEGGQVSYPSMQKI
In the case of B1, the binding [1] is reported as “binds”, the binding [2] is reported as “binds” and the binding [3] is reported as “no binding”.
